Results reported in the supplement of paper PMC10849652.
The list shows a part of the results.

Protein sequences, listed by entry. Tags and fused reporters are not part of them. Lines headed by an entry give the natural chain unless they say otherwise; changes in a name come on top.
UniProt Q92734, whole entry, looked up: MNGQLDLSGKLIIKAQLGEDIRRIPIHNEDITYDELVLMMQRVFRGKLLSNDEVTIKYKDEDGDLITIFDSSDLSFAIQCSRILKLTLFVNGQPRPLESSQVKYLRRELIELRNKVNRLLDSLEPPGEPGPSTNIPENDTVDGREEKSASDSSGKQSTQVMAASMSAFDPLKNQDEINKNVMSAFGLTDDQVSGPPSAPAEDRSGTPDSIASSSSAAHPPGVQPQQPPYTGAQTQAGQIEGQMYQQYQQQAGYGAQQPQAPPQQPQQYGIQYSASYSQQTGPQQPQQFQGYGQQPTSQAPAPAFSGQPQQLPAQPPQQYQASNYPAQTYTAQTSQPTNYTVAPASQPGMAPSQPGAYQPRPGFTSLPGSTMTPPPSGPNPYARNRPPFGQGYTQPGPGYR
UniProt O43493: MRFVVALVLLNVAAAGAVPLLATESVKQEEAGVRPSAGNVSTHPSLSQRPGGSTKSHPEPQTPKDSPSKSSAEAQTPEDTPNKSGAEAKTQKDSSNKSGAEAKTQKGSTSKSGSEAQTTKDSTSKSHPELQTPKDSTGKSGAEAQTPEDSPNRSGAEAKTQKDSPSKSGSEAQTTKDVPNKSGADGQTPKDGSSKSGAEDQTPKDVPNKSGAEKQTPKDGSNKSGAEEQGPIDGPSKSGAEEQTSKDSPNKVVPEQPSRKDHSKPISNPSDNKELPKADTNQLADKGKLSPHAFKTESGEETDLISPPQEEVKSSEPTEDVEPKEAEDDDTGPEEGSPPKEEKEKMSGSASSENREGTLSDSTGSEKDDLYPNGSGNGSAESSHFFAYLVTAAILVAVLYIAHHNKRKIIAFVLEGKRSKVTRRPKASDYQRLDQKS
UniProt P02786, whole entry, looked up: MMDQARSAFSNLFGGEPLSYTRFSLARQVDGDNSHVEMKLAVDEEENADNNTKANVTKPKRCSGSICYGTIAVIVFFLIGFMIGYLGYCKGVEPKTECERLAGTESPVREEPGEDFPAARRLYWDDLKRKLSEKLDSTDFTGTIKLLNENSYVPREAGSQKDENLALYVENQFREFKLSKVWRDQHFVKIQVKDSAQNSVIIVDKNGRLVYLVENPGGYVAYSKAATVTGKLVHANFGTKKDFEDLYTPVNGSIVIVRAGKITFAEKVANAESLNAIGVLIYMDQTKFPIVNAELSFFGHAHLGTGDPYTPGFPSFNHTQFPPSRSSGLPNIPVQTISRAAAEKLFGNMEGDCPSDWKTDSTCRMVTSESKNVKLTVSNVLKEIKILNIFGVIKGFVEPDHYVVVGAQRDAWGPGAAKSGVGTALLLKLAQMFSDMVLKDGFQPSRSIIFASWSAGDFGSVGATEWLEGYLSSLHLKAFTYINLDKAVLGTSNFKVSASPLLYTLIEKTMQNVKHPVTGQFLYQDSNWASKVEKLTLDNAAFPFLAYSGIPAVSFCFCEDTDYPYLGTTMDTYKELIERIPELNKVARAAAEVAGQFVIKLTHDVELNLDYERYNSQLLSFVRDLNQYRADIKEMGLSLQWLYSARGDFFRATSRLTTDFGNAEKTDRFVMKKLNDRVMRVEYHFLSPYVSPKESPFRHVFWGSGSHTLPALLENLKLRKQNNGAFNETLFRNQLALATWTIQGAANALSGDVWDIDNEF
UniProt Q15554: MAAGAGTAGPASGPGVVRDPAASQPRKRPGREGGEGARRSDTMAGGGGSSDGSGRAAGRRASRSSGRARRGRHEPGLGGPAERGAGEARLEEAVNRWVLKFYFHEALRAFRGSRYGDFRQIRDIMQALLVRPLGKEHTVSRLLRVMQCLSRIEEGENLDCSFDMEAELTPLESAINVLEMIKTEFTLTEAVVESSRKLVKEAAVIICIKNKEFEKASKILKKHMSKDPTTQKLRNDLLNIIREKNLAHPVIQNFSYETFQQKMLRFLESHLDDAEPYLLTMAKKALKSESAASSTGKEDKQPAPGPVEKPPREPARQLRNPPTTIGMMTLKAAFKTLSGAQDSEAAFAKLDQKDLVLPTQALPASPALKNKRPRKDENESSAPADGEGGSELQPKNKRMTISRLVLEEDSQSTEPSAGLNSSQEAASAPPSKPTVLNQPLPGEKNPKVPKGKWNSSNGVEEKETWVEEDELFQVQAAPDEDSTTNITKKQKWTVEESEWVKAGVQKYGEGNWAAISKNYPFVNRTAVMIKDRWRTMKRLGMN
UniProt Q9Y5J7: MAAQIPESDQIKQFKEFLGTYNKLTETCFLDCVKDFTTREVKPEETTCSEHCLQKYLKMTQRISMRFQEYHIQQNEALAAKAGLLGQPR
UniProt P62072: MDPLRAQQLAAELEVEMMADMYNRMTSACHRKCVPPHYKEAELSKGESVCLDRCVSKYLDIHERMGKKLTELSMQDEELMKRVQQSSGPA
UniProt O75663: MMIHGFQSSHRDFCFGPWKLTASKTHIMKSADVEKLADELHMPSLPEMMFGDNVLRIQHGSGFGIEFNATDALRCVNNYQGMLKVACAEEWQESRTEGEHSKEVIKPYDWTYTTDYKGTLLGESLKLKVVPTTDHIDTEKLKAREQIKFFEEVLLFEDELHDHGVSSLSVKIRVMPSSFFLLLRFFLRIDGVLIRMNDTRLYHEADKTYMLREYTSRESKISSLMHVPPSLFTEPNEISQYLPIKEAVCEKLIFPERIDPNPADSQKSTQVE
UniProt Q9Y6I9: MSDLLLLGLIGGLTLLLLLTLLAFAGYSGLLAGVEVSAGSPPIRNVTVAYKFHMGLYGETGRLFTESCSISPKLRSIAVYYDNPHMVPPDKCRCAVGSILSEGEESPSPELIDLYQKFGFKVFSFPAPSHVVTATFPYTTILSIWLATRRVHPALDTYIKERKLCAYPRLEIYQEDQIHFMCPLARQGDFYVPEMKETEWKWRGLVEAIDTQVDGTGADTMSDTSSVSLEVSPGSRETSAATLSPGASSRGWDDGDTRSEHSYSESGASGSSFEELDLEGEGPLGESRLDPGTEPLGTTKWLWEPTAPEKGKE
UniProt Q8NI27: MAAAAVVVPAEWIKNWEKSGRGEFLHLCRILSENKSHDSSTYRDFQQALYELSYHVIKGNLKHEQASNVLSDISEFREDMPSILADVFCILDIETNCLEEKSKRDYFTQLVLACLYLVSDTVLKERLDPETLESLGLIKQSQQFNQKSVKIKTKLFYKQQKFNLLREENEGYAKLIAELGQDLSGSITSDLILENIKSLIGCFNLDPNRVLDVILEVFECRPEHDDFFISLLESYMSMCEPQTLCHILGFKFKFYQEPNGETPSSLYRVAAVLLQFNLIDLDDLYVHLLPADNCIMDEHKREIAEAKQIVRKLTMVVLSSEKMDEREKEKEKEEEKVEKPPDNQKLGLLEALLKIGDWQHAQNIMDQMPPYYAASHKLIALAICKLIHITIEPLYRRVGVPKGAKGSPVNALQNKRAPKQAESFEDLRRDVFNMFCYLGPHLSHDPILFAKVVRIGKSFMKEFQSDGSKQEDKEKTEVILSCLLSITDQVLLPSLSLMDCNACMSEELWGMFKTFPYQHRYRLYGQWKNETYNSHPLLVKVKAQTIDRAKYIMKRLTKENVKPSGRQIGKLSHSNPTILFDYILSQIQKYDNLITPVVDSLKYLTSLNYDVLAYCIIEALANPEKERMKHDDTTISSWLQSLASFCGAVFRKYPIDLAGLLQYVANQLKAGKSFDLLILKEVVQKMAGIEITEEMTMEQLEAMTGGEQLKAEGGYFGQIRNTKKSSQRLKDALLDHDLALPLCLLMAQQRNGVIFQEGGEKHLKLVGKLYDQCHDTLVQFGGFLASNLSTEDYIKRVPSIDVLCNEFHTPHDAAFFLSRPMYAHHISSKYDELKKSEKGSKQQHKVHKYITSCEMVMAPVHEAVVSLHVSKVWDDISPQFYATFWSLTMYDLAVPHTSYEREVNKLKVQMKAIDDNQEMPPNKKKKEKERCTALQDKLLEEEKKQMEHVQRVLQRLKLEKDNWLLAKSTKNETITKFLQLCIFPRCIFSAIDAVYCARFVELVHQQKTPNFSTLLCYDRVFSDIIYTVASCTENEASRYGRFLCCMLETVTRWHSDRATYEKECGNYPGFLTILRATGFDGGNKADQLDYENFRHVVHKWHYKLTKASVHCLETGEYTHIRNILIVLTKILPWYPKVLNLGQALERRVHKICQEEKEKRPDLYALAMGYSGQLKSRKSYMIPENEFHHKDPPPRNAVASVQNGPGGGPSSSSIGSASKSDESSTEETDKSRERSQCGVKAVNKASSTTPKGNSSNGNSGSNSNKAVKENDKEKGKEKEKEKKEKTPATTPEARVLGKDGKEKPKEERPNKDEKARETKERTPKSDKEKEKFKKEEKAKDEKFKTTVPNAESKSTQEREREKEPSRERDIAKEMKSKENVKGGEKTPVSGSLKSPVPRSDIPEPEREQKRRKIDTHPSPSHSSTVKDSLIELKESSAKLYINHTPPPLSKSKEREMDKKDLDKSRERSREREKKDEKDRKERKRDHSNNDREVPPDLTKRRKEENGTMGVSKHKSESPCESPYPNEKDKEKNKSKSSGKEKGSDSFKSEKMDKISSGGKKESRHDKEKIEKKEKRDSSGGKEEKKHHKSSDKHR
UniProt Q9Y4C2: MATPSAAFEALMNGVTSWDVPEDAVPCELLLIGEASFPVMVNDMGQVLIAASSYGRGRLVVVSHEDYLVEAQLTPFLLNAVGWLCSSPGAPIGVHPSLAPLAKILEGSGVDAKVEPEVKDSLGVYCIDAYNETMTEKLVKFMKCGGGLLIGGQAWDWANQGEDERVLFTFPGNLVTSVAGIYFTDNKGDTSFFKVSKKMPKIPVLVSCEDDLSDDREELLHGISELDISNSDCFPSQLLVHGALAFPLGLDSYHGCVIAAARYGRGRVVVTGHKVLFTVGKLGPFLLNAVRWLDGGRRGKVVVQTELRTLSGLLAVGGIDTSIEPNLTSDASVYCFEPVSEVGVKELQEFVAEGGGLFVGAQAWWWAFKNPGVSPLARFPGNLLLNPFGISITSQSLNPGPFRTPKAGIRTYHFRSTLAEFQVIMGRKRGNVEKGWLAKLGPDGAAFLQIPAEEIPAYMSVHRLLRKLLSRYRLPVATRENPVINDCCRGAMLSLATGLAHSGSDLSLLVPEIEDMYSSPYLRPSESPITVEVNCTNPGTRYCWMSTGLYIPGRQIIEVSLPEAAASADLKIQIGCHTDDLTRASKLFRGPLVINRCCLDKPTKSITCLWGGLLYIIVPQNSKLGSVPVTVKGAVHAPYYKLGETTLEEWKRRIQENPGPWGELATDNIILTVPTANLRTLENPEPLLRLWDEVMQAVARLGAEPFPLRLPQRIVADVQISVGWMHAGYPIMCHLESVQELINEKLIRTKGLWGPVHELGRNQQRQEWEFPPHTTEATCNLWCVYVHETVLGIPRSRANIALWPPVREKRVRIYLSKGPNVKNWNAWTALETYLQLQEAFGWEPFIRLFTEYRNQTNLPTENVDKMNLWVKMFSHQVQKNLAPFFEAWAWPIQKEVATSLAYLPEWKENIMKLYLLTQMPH
UniProt Q9UHD2: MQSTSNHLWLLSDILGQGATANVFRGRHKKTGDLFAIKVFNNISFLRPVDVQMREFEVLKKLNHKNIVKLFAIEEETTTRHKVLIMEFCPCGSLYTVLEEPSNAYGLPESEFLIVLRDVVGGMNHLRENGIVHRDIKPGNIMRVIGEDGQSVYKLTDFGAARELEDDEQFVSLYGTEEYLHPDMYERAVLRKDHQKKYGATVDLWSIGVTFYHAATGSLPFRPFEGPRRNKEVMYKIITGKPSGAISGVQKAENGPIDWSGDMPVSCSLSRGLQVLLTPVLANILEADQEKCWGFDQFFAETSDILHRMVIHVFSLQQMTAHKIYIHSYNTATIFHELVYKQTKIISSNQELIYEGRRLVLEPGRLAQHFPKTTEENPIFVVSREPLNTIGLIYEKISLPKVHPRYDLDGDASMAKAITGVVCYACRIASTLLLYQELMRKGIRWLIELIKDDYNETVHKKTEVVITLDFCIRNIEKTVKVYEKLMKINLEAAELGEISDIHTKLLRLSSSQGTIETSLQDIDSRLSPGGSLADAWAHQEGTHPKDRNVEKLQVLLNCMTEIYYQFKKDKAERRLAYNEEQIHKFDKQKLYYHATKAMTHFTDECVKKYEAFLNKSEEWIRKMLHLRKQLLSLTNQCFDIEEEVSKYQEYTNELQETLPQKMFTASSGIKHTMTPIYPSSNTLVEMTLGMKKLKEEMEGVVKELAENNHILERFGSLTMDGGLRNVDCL
UniProt P01033: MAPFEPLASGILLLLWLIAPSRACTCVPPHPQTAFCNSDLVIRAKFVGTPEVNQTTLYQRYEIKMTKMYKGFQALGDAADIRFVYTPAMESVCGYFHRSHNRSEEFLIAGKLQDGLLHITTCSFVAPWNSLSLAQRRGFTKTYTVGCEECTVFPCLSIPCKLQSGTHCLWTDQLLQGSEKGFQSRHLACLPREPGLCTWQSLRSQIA
UniProt O60830: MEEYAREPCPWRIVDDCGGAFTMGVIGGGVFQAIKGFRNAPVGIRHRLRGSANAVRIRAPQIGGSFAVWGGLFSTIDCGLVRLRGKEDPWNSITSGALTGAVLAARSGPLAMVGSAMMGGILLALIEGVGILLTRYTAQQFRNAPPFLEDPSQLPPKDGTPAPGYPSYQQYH

Tests used:
Assay in all cases: log2 fold change, soluble protein after heating vs DMSO (PISA); higher = thermal stabilisation; K562 cells, 10 uM, 30 min; active = over 0.2 and 3.5 SD of the protein, either way, in both replicates (recomputed)
[1] = compound: CC1=C(C=C(C=C1)NC(=O)C2=CC(=CC=C2)C(C)(C)C#N)NC3=CC4=C(C=C3)N=CN(C4=O)C
Summary of the method: (§1)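 Quantification of soluble protein used TMTpro 16plex LC-MS/MS, with channel sums equalised. Samples were the supernatant after 21,000xg for 90 min of pooled aliquots from K562 cells (2×10^6 cells/mL) treated with 10 μM compound for 30 min, heated for 3 min over 48°C-58°C, and extracted in PBS with 0.5% NP-40 at 4°C. Values, from duplicates, describe thermal stability against control samples on a log2 fold-change scale.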

[2] = compound: CC1=C(C=C(C=C1)NC(=O)C2=CC(=CC=C2)N(C)C)NC(=O)C3=CC=C(C=C3)O
Summary of the method: as §1

[3] = compound: CC1=CC=C(C=C1)SC2=C3C=C(SC3=CN=C2)C(=O)N
Summary of the method: as §1

[4] = compound: CC1=NC(=CC=C1)C2=C(N=C(N2)C(C)(C)C)C3=CC4=NC=CN=C4C=C3
Summary of the method: as §1

[5] = compound: CCCCN(Cc1ccc(C(=O)NO)cc1)C(=O)Nc1ccccc1 [Nexturastat A]
Summary of the method: as §1

[6] = compound: CCCS(=O)(=O)Nc1ccc(F)c(C(=O)c2c[nH]c3ncc(-c4ccc(Cl)cc4)cc23)c1F [vemurafenib]
Summary of the method: as §1

[7] = compound: CCCS(=O)(=O)Nc1ccc(F)c(C(=O)c2c[nH]c3ncc(Cl)cc23)c1F
Summary of the method: as §1

[8] = compound: CCCc1cc(C)[nH]c(=O)c1CNC(=O)c1cc(-c2ccnc(N3CCN(C)CC3)c2)cc2c1cnn2C(C)C
Summary of the method: as §1

[9] = compound: CCN(CC)Cc1ccc2cc(COC(=O)Nc3ccc(C(=O)NO)cc3)ccc2c1 [givinostat]
Summary of the method: as §1

[10] = compound: CCN(CCCOc1ccc2c(Nc3cc(CC(=O)Nc4cccc(F)c4)[nH]n3)ncnc2c1)CCOP(=O)(O)O [barasertib]
Summary of the method: as §1

Measured: log2 fold change

TFG (UniProt Q92734)
inactive: [1] 0 | [2] -0.026 | [3] 0.012 | [4] 0.006 | [5] -0.011 | [6] 0.004 | [7] 0.015 | [8] -0.026 | [9] -0.002 | [10] -0.01

TGOLN2 isoform 7 (UniProt O43493)
inactive: [1] 0.005 | [2] -0.003 | [3] -0.003 | [4] -0.005 | [5] -0.071 | [6] -0.082 | [7] -0.073 | [8] -0.028 | [9] -0.026 | [10] -0.024

TFB2M (UniProt Q9H5Q4)
inactive: [1] -0.017 | [2] 0 | [3] 0.008 | [4] 0.086 | [5] -0.077 | [6] 0.035 | [7] 0.073 | [8] -0.058 | [9] 0.017 | [10] 0.048

TFRC (UniProt P02786)
inactive: [1] -0.008 | [2] 0.023 | [3] 0.02 | [4] 0.026 | [5] -0.067 | [6] -0.002 | [7] -0.007 | [8] -0.026 | [9] 0.004 | [10] -0.015

TES (UniProt Q9UGI8)
inactive: [1] 0.003 | [2] 0.004 | [3] 0.012 | [4] 0.016 | [5] -0.022 | [6] 0.023 | [7] 0.014 | [8] -0.004 | [9] -0.058 | [10] 0.023

TERF2 (UniProt Q15554)
inactive: [1] 0.016 | [2] -0.098 | [3] -0.018 | [4] -0.074 | [5] 0.109 | [6] -0.003 | [7] 0.024 | [8] 0.14 | [9] 0.055 | [10] -0.074

TIMM9 (UniProt Q9Y5J7)
inactive: [1] 0.062 | [2] -0.124 | [3] -0.009 | [4] 0.058 | [5] -0.051 | [6] 0.108 | [7] -0.066 | [8] -0.011 | [9] -0.084 | [10] 0.051

TGFBRAP1 (UniProt Q8WUH2)
inactive: [1] -0.058 | [2] -0.001 | [3] 0.138 | [4] 0.061 | [5] 0.107 | [6] -0.055 | [7] -0.003 | [8] 0.038 | [9] 0.092 | [10] 0.01

TIMM10 (UniProt P62072)
inactive: [1] 0.031 | [2] -0.078 | [3] 0.018 | [4] 0.045 | [5] -0.124 | [6] 0.058 | [7] -0.093 | [8] -0.049 | [9] -0.05 | [10] 0.022

TIPRL (UniProt O75663)
inactive: [1] 0.011 | [2] -0.017 | [3] 0.007 | [4] 0.013 | [5] -0.05 | [6] 0.022 | [7] 0.046 | [8] 0.02 | [9] 0.032 | [10] -0.007

TEX264 (UniProt Q9Y6I9)
inactive: [1] 0.053 | [2] -0.016 | [3] -0.008 | [4] 0.013 | [5] 0.023 | [6] -0.002 | [7] -0.049 | [8] 0.014 | [9] 0.317 | [10] 0.032

TKT, A0A0B4J1R6
inactive: [1] 0.055 | [2] 0.05 | [3] 0.094 | [4] 0.039 | [5] -0.101 | [6] -0.085 | [7] -0.036 | [8] -0.058 | [9] -0.034 | [10] 0.039

THOC2 (UniProt Q8NI27)
inactive: [1] 0.01 | [2] -0.012 | [3] -0.031 | [4] -0.049 | [5] 0.097 | [6] -0.01 | [7] -0.031 | [8] 0.042 | [9] 0.035 | [10] 0

TDP2 isoform 2 (UniProt O95551)
inactive: [1] -0.007 | [2] 0.052 | [3] -0.025 | [4] -0.007 | [5] 0.005 | [6] 0.043 | [7] 0.038 | [8] -0.04 | [9] -0.007 | [10] 0.005

TCAF1 (UniProt Q9Y4C2)
inactive: [1] 0.001 | [2] -0.005 | [3] -0.044 | [4] -0.007 | [5] 0.116 | [6] 0.023 | [7] -0.015 | [8] 0.043 | [9] 0.042 | [10] 0.017

TLCD4 (UniProt Q96MV1)
inactive: [1] 0.037 | [2] 0.012 | [3] -0.018 | [4] 0.11 | [5] -0.143 | [6] -0.005 | [7] 0.034 | [8] -0.026 | [9] -0.021 | [10] -0.029

TBK1 (UniProt Q9UHD2)
inactive: [1] -0.018 | [2] -0.03 | [3] 0.019 | [4] -0.007 | [5] 0.163 | [6] -0.012 | [7] 0.089 | [8] 0.083 | [9] 0.065 | [10] 0.028

TIMP1 (UniProt P01033)
inactive: [1] 0.089 | [2] 0.01 | [3] -0.025 | [4] -0.052 | [5] -0.051 | [6] -0.022 | [7] -0.076 | [8] -0.022 | [9] -0.052 | [10] -0.045

TIMMDC1 (UniProt Q9NPL8)
inactive: [1] -0.015 | [2] -0.061 | [3] 0.09 | [4] 0.023 | [5] 0.008 | [6] -0.072 | [7] -0.029 | [8] 0.041 | [9] -0.002 | [10] -0.025

TK2 isoform 6 (UniProt O00142)
inactive: [1] -0.217 | [2] 0.001 | [4] -0.127 | [5] -0.172 | [6] -0.073 | [8] -0.024 | [9] -0.207 | [10] 0.024

TIMM17B (UniProt O60830)
inactive: [1] -0.018 | [2] 0.053 | [3] -0.038 | [4] -0.021 | [5] 0.023 | [6] -0.032 | [7] 0.003 | [8] -0.086 | [9] 0.017 | [10] 0.019

TIMM44 (UniProt O43615)
inactive: [1] 0.048 | [2] -0.028 | [3] 0.091 | [4] 0.074 | [5] -0.052 | [6] -0.002 | [7] 0.12 | [8] -0.096 | [9] -0.013 | [10] 0.055

TBCE (UniProt Q15813)
inactive: [1] -0.09 | [2] -0.007 | [3] 0.054 | [4] -0.091 | [5] 0.179 | [6] 0.038 | [7] 0.063 | [8] 0.108 | [9] 0.128 | [10] 0.088

Two records drawn at random from the list so far, as already listed:
TIMMDC1 (UniProt Q9NPL8)
inactive: [1] -0.015 | [2] -0.061 | [3] 0.09 | [4] 0.023 | [5] 0.008 | [6] -0.072 | [7] -0.029 | [8] 0.041 | [9] -0.002 | [10] -0.025

TIMM44 (UniProt O43615)
inactive: [1] 0.048 | [2] -0.028 | [3] 0.091 | [4] 0.074 | [5] -0.052 | [6] -0.002 | [7] 0.12 | [8] -0.096 | [9] -0.013 | [10] 0.055

Carrying on:

TCOF1 isoform 3 (UniProt Q13428)
inactive: [1] -0.051 | [2] 0.262 | [5] -0.429 | [9] 0.047

TERF2IP (UniProt Q9NYB0)
inactive: [1] -0.023 | [2] -0.012 | [3] 0.02 | [4] 0.013 | [5] 0.057 | [6] 0.184 | [7] 0.001 | [8] -0.017 | [9] -0.009 | [10] 0.021

TENT5C (UniProt Q5VWP2)
inactive: [1] -0.011 | [2] 0.037 | [3] -0.019 | [4] 0.088 | [6] 0.097 | [7] 0.005 | [8] -0.137 | [9] 0.014 | [10] 0.01

TCOF1 isoform 6 (UniProt Q13428)
inactive: [1] 0.148 | [2] -0.078 | [4] -0.105 | [6] 0.146 | [8] 0.545 | [9] -0.024 | [10] 0.008

THEM4 (UniProt Q5T1C6)
inactive: [1] 0.021 | [2] -0.021 | [3] 0.022 | [4] -0.009 | [5] -0.084 | [6] 0.018 | [7] -0.043 | [8] 0.01 | [9] -0.005 | [10] 0.001
